Data from article PMC1557783.
No constants are given. Whether binding was seen depends on the method and setting. In cells and extracts the contact can be indirect. Some binding calls cover weakened binding; strength is not graded here.

Protein sequences, listed by entry. Tags and fused reporters are not part of them.
UniProt Q32KD4: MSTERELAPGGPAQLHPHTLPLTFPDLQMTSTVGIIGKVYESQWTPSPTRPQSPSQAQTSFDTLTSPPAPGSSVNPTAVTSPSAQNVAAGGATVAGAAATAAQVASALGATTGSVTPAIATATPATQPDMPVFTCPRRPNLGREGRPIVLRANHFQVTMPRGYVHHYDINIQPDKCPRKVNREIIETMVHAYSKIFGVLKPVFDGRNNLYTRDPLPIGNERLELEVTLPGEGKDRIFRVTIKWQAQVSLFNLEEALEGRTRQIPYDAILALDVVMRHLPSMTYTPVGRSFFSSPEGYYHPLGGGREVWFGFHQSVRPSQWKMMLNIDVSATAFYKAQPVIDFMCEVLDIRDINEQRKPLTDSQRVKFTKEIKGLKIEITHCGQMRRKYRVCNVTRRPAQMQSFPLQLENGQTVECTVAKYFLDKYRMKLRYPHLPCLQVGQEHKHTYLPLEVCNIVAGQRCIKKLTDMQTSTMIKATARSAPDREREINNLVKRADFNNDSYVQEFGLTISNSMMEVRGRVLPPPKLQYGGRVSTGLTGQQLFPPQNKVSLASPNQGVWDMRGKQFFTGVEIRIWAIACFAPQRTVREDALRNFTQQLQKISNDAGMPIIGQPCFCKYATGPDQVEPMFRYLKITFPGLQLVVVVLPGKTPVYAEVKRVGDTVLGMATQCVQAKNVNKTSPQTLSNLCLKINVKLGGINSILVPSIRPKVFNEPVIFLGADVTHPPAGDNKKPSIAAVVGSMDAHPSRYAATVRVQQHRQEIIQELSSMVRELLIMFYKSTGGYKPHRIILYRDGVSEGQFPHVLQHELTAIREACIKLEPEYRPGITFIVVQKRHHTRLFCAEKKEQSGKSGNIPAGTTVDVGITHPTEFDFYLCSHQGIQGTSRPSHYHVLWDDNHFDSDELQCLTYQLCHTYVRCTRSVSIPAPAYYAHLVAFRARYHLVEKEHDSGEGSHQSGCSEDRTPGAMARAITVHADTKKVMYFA

Target: T1, Argonaute 2 (Drosophila melanogaster (endogenous in embryos)) (UniProt Q9VUQ5)
T1 sequence: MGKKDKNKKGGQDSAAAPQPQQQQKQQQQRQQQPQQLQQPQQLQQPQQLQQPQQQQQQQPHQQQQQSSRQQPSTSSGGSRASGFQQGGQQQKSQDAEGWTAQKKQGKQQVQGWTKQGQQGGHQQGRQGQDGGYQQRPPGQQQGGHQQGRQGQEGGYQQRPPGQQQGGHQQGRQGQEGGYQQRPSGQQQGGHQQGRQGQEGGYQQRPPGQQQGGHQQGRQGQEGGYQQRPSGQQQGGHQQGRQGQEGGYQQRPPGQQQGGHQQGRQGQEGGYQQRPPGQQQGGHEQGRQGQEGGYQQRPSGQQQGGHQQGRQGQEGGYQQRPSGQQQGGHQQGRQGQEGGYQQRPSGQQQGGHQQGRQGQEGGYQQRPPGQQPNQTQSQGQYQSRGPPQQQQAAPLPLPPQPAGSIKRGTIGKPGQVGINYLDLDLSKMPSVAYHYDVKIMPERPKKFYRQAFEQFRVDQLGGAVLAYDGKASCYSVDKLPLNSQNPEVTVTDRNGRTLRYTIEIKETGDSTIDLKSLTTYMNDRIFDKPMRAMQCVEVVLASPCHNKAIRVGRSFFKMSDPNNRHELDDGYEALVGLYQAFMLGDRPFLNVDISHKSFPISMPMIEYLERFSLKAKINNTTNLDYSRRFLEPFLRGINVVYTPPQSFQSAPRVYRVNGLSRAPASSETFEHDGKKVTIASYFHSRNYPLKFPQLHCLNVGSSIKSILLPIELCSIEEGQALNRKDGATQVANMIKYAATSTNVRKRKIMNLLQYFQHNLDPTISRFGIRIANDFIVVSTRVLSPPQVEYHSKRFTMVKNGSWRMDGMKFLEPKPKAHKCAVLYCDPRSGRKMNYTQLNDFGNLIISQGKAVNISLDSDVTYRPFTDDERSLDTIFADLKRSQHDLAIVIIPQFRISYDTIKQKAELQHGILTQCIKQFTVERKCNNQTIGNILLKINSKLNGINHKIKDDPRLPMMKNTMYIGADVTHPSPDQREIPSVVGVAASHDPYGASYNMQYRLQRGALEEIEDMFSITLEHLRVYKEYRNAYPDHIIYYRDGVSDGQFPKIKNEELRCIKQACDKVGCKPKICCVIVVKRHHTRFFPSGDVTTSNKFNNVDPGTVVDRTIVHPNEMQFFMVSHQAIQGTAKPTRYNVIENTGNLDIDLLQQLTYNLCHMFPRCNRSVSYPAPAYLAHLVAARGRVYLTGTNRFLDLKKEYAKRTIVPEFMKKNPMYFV
Assay: co-IP; rabbit anti-Ago2Cterm covalently bound to coupling gel (AminoLink Plus); wild-type embryo extract, 500 ug protein, CHAPS lysis buffer (20 mM Tris pH 8, 150 mM NaCl, 10% glycerol, 2 mM EDTA, 10 mM CHAPS), 1.5 h at 4 C; Western blot with anti-Ago1; anti-GFP antibody as control

Argonaute 1 (from UniProt Q32KD4 1-984) was tested, and the binding was “binds”.
